Measured values: PubChem BioAssay AID2685 (National Center for Advancing Translational Sciences (NCATS), 2010)
Among all 320,000 compounds or so, about 2,100 (0.66%) were called active. The shares of active, inactive and inconclusive entries below differ from those in the screen. The call rests on the fitted dose curve; in most records, active means well fitted inhibition curve with a large enough effect in the signal ratio, with a control signal flat (not every such curve was filed as active); inconclusive means small, poorly fitted or top-dose-only effect, or effect the other way, or a change in a side signal; inactive means flat fitted curve, though single readings scatter; the % refers to the signal ratio. Potencies beside an inconclusive call are fits to weak or partial responses and may not hold up.

Assay: qHTS Assay for Lipid Storage Modulators in Drosophila S3 Cells
Conditions: BODIPY lipid droplet fluorescence, 18-24 h, cells fed with added oleic acid; lipid storage change, negative = inhibition: at 46.1 µM (top of the series) unless noted
Procedure, shortened: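 Laser-scanning cytometry quantifies lipid droplet accumulation (500–530 nm total intensity; droplet/cell object ratio) in oleic acid-fed (400 uM added) Drosophila S3 cells treated with a concentration series. 20 uM Triacsin C defined 100% inhibition.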
On the % scale 0 is the no-effect control and ±100 the full control effect; potency means the concentration at half of the fitted maximal effect.

Lipid storage change, negative = inhibition, inconclusive:
Cc1ccc(C(=O)COC(=O)CNC(=O)C(c2ccccc2)c2ccccc2)cc1[N+](=O)[O-] 31.7%
COc1ccc(NC(=O)C2CC(=O)N(C)C(=Nc3ccc4c(c3)OCO4)S2)cc1 (stereo not given) 60.7%
O=C(O)CCSc1nnc(CNc2ccc(Cl)cc2)n1Cc1ccccc1 -2.36%
CC(C)(CN=C1NS(=O)(=O)c2ccccc21)CNC(=O)c1ccccc1 -61.2%
COc1cc(N(C)C)c(NC(C)=O)cc1C(=O)O -63.2%
Cc1ccnc2c1ccc1ccccc12 -3.53%
CCOC(=O)CSc1ncc(-c2ccccc2)cn1 42.8% [at 0.0737 µM]
Cc1ccccc1CC1CCN(CCCNC(=O)Nc2ccccc2)CC1 9.2%
Cc1cc(NC(=O)CSCC(=O)Nc2ccccc2OC(F)F)no1
CCOc1ccc(S(=O)(=O)N2CCCC(C(=O)N3CCN(CC)CC3)C2)cc1Cl (stereo not given) 77.1%
CC(=O)c1cccc(NC(=O)c2ccc(Br)o2)c1 6.75%

3 entries out of the list, arranged by count of non-hydrogen atoms, rising.
Lipid storage change, negative = inhibition, inconclusive:
Cc1ccnc2c1ccc1ccccc12 -3.53%
COc1cc(N(C)C)c(NC(C)=O)cc1C(=O)O -63.2%
Cc1ccccc1CC1CCN(CCCNC(=O)Nc2ccccc2)CC1 9.2%

Following part:

Potency, inconclusive:
CCOc1ccccc1N1CCN(C(=O)c2cc(S(=O)(=O)N3CCCCC3)ccc2C)CC1 29.1 µM [falling, single point]
COc1ccc(S(=O)(=O)N(C(C)=O)c2ccc(OC(C)=O)c3ccccc23)cc1[N+](=O)[O-] 20.6 µM [falling, single point]
O=C(CCc1ccccc1)NCc1ccccn1 6.51 µM [rising, single point]
Cc1ccc2c(c1)[C@H]1[C@H](CO2)[C@H](c2ccccc2)[C@]2(C)C(=O)Nc3cc(Cl)ccc3C(=O)N12 1.64 µM [activator, partial curve, poor fit]
O=c1[nH]nc(SCc2cc(Cl)ccc2Cl)c(=O)[nH]1 29.1 µM [activator, single point]
CC1CC(C)CN(C(=O)COC(=O)c2ccc3ccccc3n2)C1 (stereo not given) 29.1 µM [falling, single point]
CCNS(=O)(=O)c1ccc(CCC(=O)O)cc1 0.517 µM [falling, full curve, poor fit]
CCCC1=NN(c2ccc([N+](=O)[O-])cc2)C(=O)/C1=C\N(C)C 5.17 µM [rising, partial curve]
NC(=O)CSc1nnc(-c2ccccn2)n1N 0.206 µM [falling, full curve]
